Laboratory results as given in patent US20220306750A1 (CITY OF HOPE, published 2022).
No constants are given. Whether binding was seen depends on the method and setting. Some binding calls cover weakened binding; strength is not graded here.

By UniProt entry, the sequences of proteins in these tests, tags left out. Residues count along the entry.
UniProt Q9NPH3, residues 21-367: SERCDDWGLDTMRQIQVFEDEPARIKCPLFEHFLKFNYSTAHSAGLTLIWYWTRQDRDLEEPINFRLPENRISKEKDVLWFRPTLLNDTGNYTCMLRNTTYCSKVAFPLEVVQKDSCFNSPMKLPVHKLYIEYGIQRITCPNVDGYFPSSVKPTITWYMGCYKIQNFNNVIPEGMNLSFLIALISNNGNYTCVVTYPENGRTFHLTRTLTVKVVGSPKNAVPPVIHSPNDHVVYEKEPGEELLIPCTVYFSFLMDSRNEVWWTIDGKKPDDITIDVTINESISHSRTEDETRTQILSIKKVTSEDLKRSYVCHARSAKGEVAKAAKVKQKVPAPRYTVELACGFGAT

Target: interleukin-1 receptor accessory protein (IL1RAP), antigen of the ELISA and phage selection (UniProt Q9NPH3)
Assay: human scFv phage display library selection

binding: binds
B1: anti-IL1RAP antibody clone 2E12 (Fc fusion)
VH: PGAAAGVGGGLVQPGGSLRLSCEASGFTFSRYWMHWVRQAPGKGLVWVSRIHTDGSSISYADSVKGRFTISRDNAKNTLYLQMNSLRAEDTAVYYCARDIGGGYSYGSVDYWGQGTLVTVSS
VL: QPVLTQSPSVSVAPGKTTRITCGGDNIGSKSVHWFQQKPGQAPVLVVFGGGDRPSGIPERFSGSNSGNTATLIISGVEGGDEADYYCQVWDGSTDHYIFGAGTMVTVL
notes: Tested as scFv-Fc
